The target in this assay is Guk1-GFP (S. cerevisiae) (UniProt P15454). Nature of the assay: co-IP; GFP-Trap agarose beads, 2 h at 4°C, on lysates of Gim3-TAP yeast cells grown at 25°C; native lysis buffer (20 mM HEPES pH 7.5, 0.5% NP-40, 200 mM NaCl, 1 mM EDTA, 10 mM iodoacetamide); blot with anti-TAP.

Sequences of proteins named here, by UniProt entry; tags and fusion partners are left off. Residues count along the entry.
UniProt P15454, residues 2-187: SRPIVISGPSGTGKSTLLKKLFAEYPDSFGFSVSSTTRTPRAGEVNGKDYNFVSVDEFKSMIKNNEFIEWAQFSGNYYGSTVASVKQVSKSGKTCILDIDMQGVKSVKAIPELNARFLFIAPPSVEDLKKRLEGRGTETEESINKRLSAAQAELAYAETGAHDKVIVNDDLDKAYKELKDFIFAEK

Results are given in words; binding and its absence hold for the method and conditions named. In cells and extracts the contact can be indirect.

B1: Gim3-TAP (protein, UniProt P53900 1-129)
chain: MELLPQGQRNNTQVTFEDQQKINEFSKLIMRKDAIAQELSLQREEKEYLDDVSLEIELIDEDEPVQYKVGDLFIFMKQSKVTAQLEKDAERLDNKIETLEDKQRDIDSRLDALKAILYAKFGDNINLER
As for B1, the binding entry is “no binding”.
